Test results as given in PMC8664295.
No constants are given. Whether binding was seen depends on the method and setting. Binding seen in cells or lysates may run through a third protein. Some entries that bind do so weakly or less than the wild type.

The chains behind the UniProt entries cited, without tags or fusion partners. Residues count along the entry.
UniProt P46531, residues 1754-2555: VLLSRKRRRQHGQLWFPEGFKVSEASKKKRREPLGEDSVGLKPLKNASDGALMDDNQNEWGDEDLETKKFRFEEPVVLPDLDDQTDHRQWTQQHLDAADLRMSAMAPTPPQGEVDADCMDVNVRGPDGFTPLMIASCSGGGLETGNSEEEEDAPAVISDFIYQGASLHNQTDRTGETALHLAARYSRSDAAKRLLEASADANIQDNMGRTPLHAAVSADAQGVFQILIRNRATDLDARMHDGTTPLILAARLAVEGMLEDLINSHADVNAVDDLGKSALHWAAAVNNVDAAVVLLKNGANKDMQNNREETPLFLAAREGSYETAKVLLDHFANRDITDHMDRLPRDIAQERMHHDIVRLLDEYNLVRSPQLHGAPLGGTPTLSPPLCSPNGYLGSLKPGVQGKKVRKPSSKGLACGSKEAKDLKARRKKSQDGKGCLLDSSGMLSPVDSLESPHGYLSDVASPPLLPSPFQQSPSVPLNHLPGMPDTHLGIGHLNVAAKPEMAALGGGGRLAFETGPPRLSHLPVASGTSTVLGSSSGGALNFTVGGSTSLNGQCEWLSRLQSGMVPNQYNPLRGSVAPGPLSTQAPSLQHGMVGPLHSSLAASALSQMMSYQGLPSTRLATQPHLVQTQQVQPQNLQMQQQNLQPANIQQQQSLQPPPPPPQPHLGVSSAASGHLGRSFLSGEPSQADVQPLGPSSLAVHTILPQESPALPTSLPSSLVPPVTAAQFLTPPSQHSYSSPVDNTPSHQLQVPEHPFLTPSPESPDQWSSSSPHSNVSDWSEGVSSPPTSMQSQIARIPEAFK
UniProt P08151: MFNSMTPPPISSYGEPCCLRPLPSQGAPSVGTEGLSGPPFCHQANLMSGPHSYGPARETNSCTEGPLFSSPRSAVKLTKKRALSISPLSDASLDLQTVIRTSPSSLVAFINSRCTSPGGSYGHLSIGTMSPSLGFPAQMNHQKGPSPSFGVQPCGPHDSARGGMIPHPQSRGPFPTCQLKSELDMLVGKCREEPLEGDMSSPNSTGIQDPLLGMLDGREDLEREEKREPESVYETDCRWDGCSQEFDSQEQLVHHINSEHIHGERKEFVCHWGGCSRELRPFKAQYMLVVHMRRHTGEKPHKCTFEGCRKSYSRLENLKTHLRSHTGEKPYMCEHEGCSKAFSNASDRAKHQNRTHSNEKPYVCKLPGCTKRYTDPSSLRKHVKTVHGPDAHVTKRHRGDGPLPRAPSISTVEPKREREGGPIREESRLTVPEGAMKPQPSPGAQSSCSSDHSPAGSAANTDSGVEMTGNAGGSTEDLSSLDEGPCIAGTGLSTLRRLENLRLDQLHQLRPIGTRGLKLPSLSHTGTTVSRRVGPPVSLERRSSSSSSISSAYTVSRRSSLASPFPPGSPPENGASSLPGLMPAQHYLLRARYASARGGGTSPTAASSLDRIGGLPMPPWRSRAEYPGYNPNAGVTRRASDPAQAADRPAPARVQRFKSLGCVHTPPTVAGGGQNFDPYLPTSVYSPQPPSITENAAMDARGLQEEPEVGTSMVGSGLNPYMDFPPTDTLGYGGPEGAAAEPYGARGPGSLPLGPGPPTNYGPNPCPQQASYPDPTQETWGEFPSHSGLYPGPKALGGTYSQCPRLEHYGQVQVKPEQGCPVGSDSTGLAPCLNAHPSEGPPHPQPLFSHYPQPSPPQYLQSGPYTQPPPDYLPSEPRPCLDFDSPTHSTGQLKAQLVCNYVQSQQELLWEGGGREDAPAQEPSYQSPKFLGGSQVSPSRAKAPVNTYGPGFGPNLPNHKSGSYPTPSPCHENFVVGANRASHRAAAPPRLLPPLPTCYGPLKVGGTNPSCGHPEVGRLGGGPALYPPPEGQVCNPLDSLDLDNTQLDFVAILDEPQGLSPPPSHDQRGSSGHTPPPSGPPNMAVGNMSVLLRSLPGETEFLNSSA

How the values were obtained:
[1] = target: Notch intracellular domain (NICD) of Notch1 (human (endogenous in TNBC cell lines)) (UniProt P46531); test: co-IP; endogenous proteins, nuclear extracts of AA-TNBC cells (MDA-MB-468, HCC1806, HCC1569); immunoprecipitation with GLI1 antibody and blot for NICD; reciprocal immunoprecipitation with NICD antibody and blot for GLI1 (MDA-MB-468, HCC1569)
[2] = target: GLI1 (glioma-associated oncogene homolog 1), endogenous nuclear (human (endogenous in TNBC cell lines)) (UniProt P08151); test: as above
[3] = target: Flag-tagged GLI1 (hGLI1-Flag3x) (human) (UniProt P08151); test: co-IP; nuclear extracts of HCC1569 cells transfected with Flag-GLI1; immunoprecipitation with GLI1 antibody, immunoblot with NICD antibody; IgG control

| Substance | binding [1] | binding [2] | binding [3] |
| --- | --- | --- | --- |
| GLI1 (glioma-associated oncogene homolog 1), endogenous nuclear (from UniProt P08151 1-1106) | binds | – | – |
| Notch intracellular domain (NICD) of Notch1 (from UniProt P46531 1754-2555) (domain or fragment) | – | binds | binds |
